# Laboratory results published in patent US20100166764A1 (Eli Lilly, published 2010).
# Numbering of substitutions follows the chain as printed. Results are given in words; binding and its absence hold for the method and conditions named. Some results given as binding are weak or reduced against the parent protein; the word gives no strength.
# T1: mature myostatin (human, murine, rat, chicken, turkey, canine, equine and porcine (one mature sequence))
# T1 sequence: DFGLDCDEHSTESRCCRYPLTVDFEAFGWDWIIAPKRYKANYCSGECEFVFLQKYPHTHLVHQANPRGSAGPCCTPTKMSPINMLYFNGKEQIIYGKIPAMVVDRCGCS
# B1: 510C2 Fab (Fab, V domains shown)
# VH: QVTLRESGPALVKPTQTLTLTCTFSGFSLRKVGRSVSWIRQPPGKALEWLAHIYWDDDKRYNPSLRNRLTISKDTSKNQVVLTMTNMDPVDTATYYCARRAITTVIGGGTFDYWGQGTTVTVSS
# VL: DIQMTQSPSSLSASVGDRVTITCSASSSISYMHWYQQKPGKAPKLLIYDTSKLARGVPSRFSGSGSGTDFTLTISSLQPEDFATYYCQQWYRNPLTFGGGTKVEIK
# B2: 510C2 Fab with the Asn residue in CDRL3 replaced with A (Fab, V domains shown)
# VH: B1 VH
# VL: B1 VL with N93A
# B3: 510C2 Fab with the Asn residue in CDRL3 replaced with T (Fab, V domains shown)
# VH: B1 VH
# VL: B1 VL with N93T
# B4: 510C2 Fab with the Asn residue in CDRL3 replaced with H (Fab, V domains shown)
# VH: B1 VH
# VL: B1 VL with N93H
# B5: 510C2 Fab with the Asn residue in CDRL3 replaced with S (Fab, V domains shown)
# VH: B1 VH
# VL: B1 VL with N93S
# B6: 510C2 Fab with the Asn residue in CDRL3 replaced with glutamine (Fab, V domains shown)
# VH: B1 VH
# VL: B1 VL with N93Q
# B7: 510C2 Fab with the Asn residue in CDRL3 replaced with isoleucine (Fab, V domains shown)
# VH: B1 VH
# VL: B1 VL with N93I
# B8: 510C2 Fab with the Asn residue in CDRL3 replaced with aspartic acid (Fab, V domains shown)
# VH: B1 VH
# VL: B1 VL with N93D
# B9: 510C2 Fab with the Asn residue in CDRL3 replaced with glutamic acid (Fab, V domains shown)
# VH: B1 VH
# VL: B1 VL with N93E
# B10: 510C2 Fab with the Asn residue in CDRL3 replaced with leucine (Fab, V domains shown)
# VH: B1 VH
# VL: B1 VL with N93L
# B11: 510C2 Fab with the Asn residue in CDRL3 replaced with glycine (Fab, V domains shown)
# VH: B1 VH
# VL: B1 VL with N93G
# B12: 510C2 Fab with the Asn residue in CDRL3 replaced with proline (Fab, V domains shown)
# VH: B1 VH
# VL: B1 VL with N93P
# B13: 510C2 Fab with the Asn residue in CDRL3 replaced with cysteine (Fab, V domains shown)
# VH: B1 VH
# VL: B1 VL with N93C
# B14: 510C2 Fab with the Asn residue in CDRL3 replaced with methionine (Fab, V domains shown)
# VH: B1 VH
# VL: B1 VL with N93M
# B15: 510C2 Fab with the Asn residue in CDRL3 replaced with valine (Fab, V domains shown)
# VH: B1 VH
# VL: B1 VL with N93V
# B16: 510C2 Fab with the Asn residue in CDRL3 replaced with tyrosine (Fab, V domains shown)
# VH: B1 VH
# VL: B1 VL with N93Y
# B17: 510C2 Fab with the Asn residue in CDRL3 replaced with phenylalanine (Fab, V domains shown)
# VH: B1 VH
# VL: B1 VL with N93F
# B18: 510C2 Fab with the Asn residue in CDRL3 replaced with arginine (Fab, V domains shown)
# VH: B1 VH
# VL: B1 VL with N93R
# B19: 510C2 Fab with the Asn residue in CDRL3 replaced with tryptophan (Fab, V domains shown)
# VH: B1 VH
# VL: B1 VL with N93W
# B20: 510C2 Fab with the Asn residue in CDRL3 replaced with lysine (Fab, V domains shown)
# VH: B1 VH
# VL: B1 VL with N93K
# Target: T1, mature myostatin (human, murine, rat, chicken, turkey, canine, equine and porcine (one mature sequence))
# Assay: ELISA on plate-coated myostatin, periprep Fab in serial dilution, detection with goat anti-human-kappa-AP, O.D. against Fab concentration (ng/ml)
row,binding,Binder
1,binds,B1
2,binds,B2
3,binds,B3
4,binds,B4
5,binds,B5

# Target: T1, mature myostatin (human, murine, rat, chicken, turkey, canine, equine and porcine (one mature sequence))
# Assay: ELISA, myostatin coated, periprep Fab titrated, anti-human-kappa-AP
row,binding,Binder
1,binds,B1
2,binds,B6
3,binds,B7
4,binds,B8
5,binds,B2
6,binds,B9
7,binds,B3
8,binds,B10
9,binds,B4
10,binds,B11
11,binds,B12
12,binds,B13
13,binds,B14
14,binds,B15
15,binds,B16
16,binds,B17
17,binds,B18
18,binds,B19
19,binds,B5
20,binds,B20
